From PubChem BioAssay (EPA / NIEHS)
Inconclusive means that the source gave no clear call. Such entries were picked first, then a sample of the others. Where the call is inconclusive, the potency comes from a doubtful curve fit. Activity calls are given as the source filed them. The calls were made as follows: active = hit-call score of the fitted dose curve at least 0.9, where 1 is the maximum; inconclusive = response in the unintended direction; inactive = score below 0.9.

Amino acid sequences for entries named in this document (tags omitted). A change or cut given only in a name is not applied to a line headed by its entry.
UniProt P04150: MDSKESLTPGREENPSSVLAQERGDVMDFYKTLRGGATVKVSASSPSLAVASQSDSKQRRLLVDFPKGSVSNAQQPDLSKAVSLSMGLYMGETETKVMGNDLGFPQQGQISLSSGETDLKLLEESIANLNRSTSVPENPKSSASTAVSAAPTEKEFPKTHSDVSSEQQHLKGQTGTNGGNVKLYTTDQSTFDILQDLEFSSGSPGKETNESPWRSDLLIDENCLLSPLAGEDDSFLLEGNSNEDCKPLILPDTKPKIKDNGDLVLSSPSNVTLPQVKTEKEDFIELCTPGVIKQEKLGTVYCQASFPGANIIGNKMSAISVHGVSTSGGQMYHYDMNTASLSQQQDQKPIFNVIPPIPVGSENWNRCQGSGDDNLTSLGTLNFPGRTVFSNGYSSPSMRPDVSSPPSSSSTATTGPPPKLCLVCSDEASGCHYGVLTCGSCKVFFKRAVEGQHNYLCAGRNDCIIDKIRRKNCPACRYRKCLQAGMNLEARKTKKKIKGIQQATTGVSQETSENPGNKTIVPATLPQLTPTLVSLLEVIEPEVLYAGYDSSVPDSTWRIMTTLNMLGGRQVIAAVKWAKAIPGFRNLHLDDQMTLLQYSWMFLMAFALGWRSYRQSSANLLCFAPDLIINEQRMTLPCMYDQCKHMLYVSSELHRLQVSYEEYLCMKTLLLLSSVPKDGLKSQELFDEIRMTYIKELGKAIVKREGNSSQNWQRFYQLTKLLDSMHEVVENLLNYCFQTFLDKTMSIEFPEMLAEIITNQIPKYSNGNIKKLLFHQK

Molecular target: Glucocorticoid receptor (Homo sapiens) (UniProt P04150)
Experiment: ATG_GR_TRANS: Attagene TRANS-FACTORIAL HepG2 Assay for human Glucocorticoid Receptor (GR) (AID 2282978);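 also: activators score as hits since higher reporter transcript over DMSO is fitted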
Conditions: HepG2 Attagene TRANS GR reporter, mRNA transcription
Protocol: ATG_TRANS is a cell-based, multiplexed-readout assay that uses HepG2, a human liver cell line, with measurements taken at 24 hours after chemical dosing in a 24-well plate.ATG_GR_TRANS is one of 30 assay component(s) measured or calculated from the ATG_TRANS assay. It is designed to make measurements of mRNA induction, a form of inducible reporter, as detected with fluorescence intensity signals by Reverse transcription polymerase chain reaction (RT-PCR) and Capillary electrophoresis technology.Data from the assay component ATG_GR_TRANS was analyzed into 1 assay endpoint. This assay endpoint, ATG_GR_TRANS, was analyzed in the positive analysis fitting direction relative to DMSO as the negative control and baseline of activity. Using a type of inducible reporter, measures of mRNA for gain-of-signal activity can be used to understand the reporter gene at the transcription factor-level as they relate to the gene NR3C1. Furthermore, this assay endpoint can be referred to as a primary readout, because this assay has produced multiple assay endpoints where this one serves a reporter gene function. To generalize the intended target to other relatable targets, this assay endpoint is annotated to the nuclear receptor intended target family, where the subfamily is steroidal.
Human liver HepG2 cells are transiently transfected with multiple reporter transcription units (MRTUs) in 6-well plates using FuGene 6 reagent (Roche; 3 ml FuGene/1 mg DNA). The MRTU constructs are regulated by a cis-regulating element (promoter). […] A major difference between the CIS and TRANS system is that in CIS activities of endogenous TFs are measured, whereas the TRANS assay evaluates changes in activities of exogenous, chimeric NR-Gal4 proteins. […] At the end of 24 hour incubation, total RNA was isolated using TriZol reagent (Invitrogen). The isolated RNA is then reverse-transcribed using oligo(dT) primer and Mo-MLV reverse transcriptase (Invitrogen) with DNAse I (Ambion) treatment for 30 min. The one-tenth of the produced cDNA was amplified by PCR using Taq DNA polymerase (Invitrogen) and two reporter sequence-specific primers. The PCR products were fluorescently labeled by primer extension with 6-arboxyfluorescein (6-FAM) 5'-labeled reporter sequence-specific primer (2 min at 95 C, 20 s at 68 C and 10 min at 72 C) and these products were digested with 5U of HpaI (New England Biolabs) for 2h at 37 C. The fragments were purified using Qiaquick PCR columns (Qiagen), analyzed on an ABI 3130xL genetic analyzer (Applied Biosystems) with peak positions identified by using a set of X-rhodamine (ROX)-labeled MapMarker1000 molecular weight standards (BioVentures). The raw capillary electrophoresis data was processed using Attagraph software (Attagene).

Row | SMILES | outcome | AC50
1 | c1ccc(N=Nc2ccccc2)cc1 | inactive | 
2 | COCC(C)N(C(=O)CCl)c1c(C)csc1C (stereo not given) |  | inconclusive: 7 µM
3 | CCCCCCCCc1ccc(O)cc1 |  | inconclusive: 33.5 µM
4 | CCCCCCCCCCCC#N | inactive | 
5 | Nc1ccccc1 |  | inconclusive: 0.958 µM
6 | N#CN |  | inconclusive: 50 µM
7 | NC(=S)Nc1ccccc1 |  | inconclusive: 100 µM
9 | C=CC(Cl)CCl (stereo not given) | inactive | 
10 | Cc1cc(C(C)(C)c2ccc(O)c(C)c2)ccc1O | inactive | 
11 | O=C(CBr)c1ccc(O)cc1 |  | inconclusive: 3.39 µM
12 | O=C1C(Cl)=C(Cl)C(=O)c2ccccc21 | inactive | 
13 | Nc1ccc([N+](=O)[O-])cc1 | inactive | 
14 | CCCCCCCCCCCCCCCC[N+](C)(C)C |  | inconclusive: 100 µM
15 | CC(C)(OOC(C)(C)c1ccccc1)c1ccccc1 |  | inconclusive: 100 µM
16 | CCCCCCOC(=O)c1ccccc1C(=O)OCCCCCC | inactive | 
17 | CC(C)=CC1C(C(=O)OCc2coc(Cc3ccccc3)c2)C1(C)C (stereo not given) | inactive | 

As entered above.
Nc1ccc([N+](=O)[O-])cc1 | outcome: inactive
c1ccc(N=Nc2ccccc2)cc1 | outcome: inactive

Next compounds follow:

Row | SMILES | outcome | AC50
21 | C#CC(C)(C)NC(=O)c1cc(Cl)cc(Cl)c1 |  | inconclusive: 50 µM
23 | CN(C)[C@@H]1C(=O)C(C(N)=O)=C(O)[C@@]2(O)C(=O)C3=C(O)c4c(O)cccc4[C@@](C)(O)[C@H]3C[C@@H]12 |  | inconclusive: 24.6 µM
24 | [O-][Cl+]O |  | inconclusive: 100 µM
25 | ClC1=C(Cl)C2(Cl)C3C(Cl)C(Cl)CC3C1(Cl)C2(Cl)Cl (stereo not given) |  | active: 100 µM
26 | COP(=S)(OC)Oc1cc(Cl)c(I)cc1Cl |  | inconclusive: 58.6 µM
27 | COc1cccc(C=O)c1 |  | inconclusive: 100 µM
28 | C=C(C)[C@H]1Cc2c(ccc3c2O[C@@H]2COc4cc(OC)c(OC)cc4[C@@H]2C3=O)O1 |  | inconclusive: 1.21 µM
29 | Clc1ccc(Oc2ccccc2)cc1 | inactive | 
30 | O=C(O)C(F)(F)C(F)(F)C(=O)O |  | inconclusive: 150 µM
31 | COC[C@H](C)N(C(=O)CCl)c1c(C)csc1C |  | inconclusive: 23.3 µM
32 | CC(C)(c1ccccc1)c1cc(-n2nc3ccccc3n2)c(O)c(C(C)(C)c2ccccc2)c1 |  | inconclusive: 0.564 µM
33 | C1=Cc2cccc3cccc1c23 |  | inconclusive: 100 µM
34 | O=C/C=C/c1ccccc1 | inactive | 
35 | O=C(CCl)c1ccccc1 | inactive | 
36 | Cc1ccccc1O | inactive | 
37 | CC1(C)[C@H](C(=O)O[C@H](C#N)c2cccc(Oc3ccccc3)c2)[C@@H]1C=C(Br)Br | inactive | 
38 | CCCN(CC)CC1COC2(CCC(C(C)(C)C)CC2)O1 (stereo not given) | inactive | 
40 | Oc1c(Cl)cc(Cl)cc1Cl |  | inconclusive: 0.234 µM
